Reference: PubChem BioAssay AID493014 (National Center for Advancing Translational Sciences (NCATS), 2011)
Screen size: about 340,000 compounds; about 170 (0.05%) were called active. This list was built around the results that the source calls inconclusive (neither active nor inactive); the mix of calls is not that of the screen. The call rests on the fitted dose curve; in most records, active means well fitted inhibition curve with a large enough effect in the signal ratio, with a control signal flat (not every such curve was filed as active); inconclusive means small, poorly fitted or top-dose-only effect, or effect the other way, or a change in a side signal; inactive means flat fitted curve, though single readings scatter; the % refers to the signal ratio. Where the call is inconclusive, the potency comes from a doubtful curve fit.

Experiment: qHTS Assay to Find Inhibitors of Chronic Active B-Cell Receptor Signaling;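 on activity change, negative = inhibition: plate controls were basal doxycycline-induced cells for no effect and cells given 10 µM MG132 for full effect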
Conditions: ABC-DLBCL IkBa-CBG/CBR reporter, luminescence ratio (green luciferase fused to IkBa over red control in TMD8 lymphoma cells), 4 h; activity change, negative = inhibition: at 46.1 µM (top of the series) unless noted
Procedure, shortened: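 Cell line TMD8 (human ABC DLBCL), stably expressing tet-inducible CBG68-IkBa fusion and CBR; IMDM/0.5% FBS; cpd up to 46 uM; dox induction, 4 h, 37C/5% CO2; dual luminescence; green/red ratio; MG132 control.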
Potency means the concentration at half of the fitted maximal effect.

Q: With `O=C(CCN1C(=O)/C(=C/c2ccc(Cl)cc2)SC1=S)NC1C=CS(=O)(=O)C1` (centres undefined) as the compound, how does the Potency read?
A: inconclusive: 35.5 µM [rising, single point]

Q: For `COc1cccc(N2CC(NC(=O)C3CC3)CC2=O)c1` (centres undefined), which “activity change, negative = inhibition” value is on record?
A: inactive: -23.2%

Q: With `O=C(NN1C(=O)/C(=C\c2ccc(O)c([N+](=O)[O-])c2)SC1=S)c1ccccc1Cl` as the compound, how does the Potency read?
A: inconclusive: 11.2 µM [rising, partial curve, poor fit]

Q: Which activity change, negative = inhibition does the source give for `COc1ccc(F)cc1C(=O)C1CCCN(C(=O)CSc2ccccn2)C1` (centres undefined) here?
A: inconclusive: 9.61%

Q: Which Potency does the source give for `O=C(NC1CCc2ccccc21)c1cc(COc2ccc(F)cc2Cl)on1` (centres undefined) here?
A: inconclusive: 35.5 µM [falling, single point]

Q: Which activity change, negative = inhibition does the source give for `Cn1cc(CN2CCC(CO)CC2)c(-c2ccc(Oc3ccccc3)cc2)n1` here?
A: inconclusive: -0.742%

Q: With `CCn1cnc2c([N+](=O)[O-])c(NS(=O)(=O)c3ccc(C)cc3)ccc21` as the compound, how does the “activity change, negative = inhibition” value read?
A: inactive: 0.526%

Q: With `CC1(c2ccc(OC(F)F)cc2)NC(=O)N(CC(=O)Nc2ccc3c(c2)OCO3)C1=O` (centres undefined) as the compound, how does the “activity change, negative = inhibition” value read?
A: inactive: -10.4%

Q: Which Potency does the source give for `O=C(Cc1ccccc1)NCC(=O)N/N=C/c1ccc([N+](=O)[O-])s1` here?
A: inconclusive: 31.6 µM [falling, single point]

Q: With `Cc1ccc(SCC(=O)NC(=O)NCc2ccco2)cc1C` as the compound, how does the Potency read?
A: inconclusive: 5.01 µM [falling, partial curve, poor fit]

Q: For `COc1ccccc1OC(C)C(=O)Nc1nc(-c2ccc(S(=O)(=O)N3CCOCC3)cc2)cs1` (centres undefined), which activity change, negative = inhibition is on record?
A: inconclusive: 3.97%

Q: With `COc1ccc(CNC(=O)c2cc(S(=O)(=O)N3CCOCC3)cn2C)cc1` as the compound, how does the “activity change, negative = inhibition” value read?
A: inactive: -0.22%

Q: With `CN(Cc1ccccc1)C(=O)c1[nH]cnc1C(=O)NCc1ccccc1` as the compound, how does the activity change, negative = inhibition read?
A: inconclusive: -5.49%

Q: With `C=C(C)CNC(=S)N/N=C/C1=CCC2CC1C2(C)C` (centres undefined) as the compound, how does the Potency read?
A: inconclusive: 29.1 µM [falling, single point]

Q: With `COc1ccccc1NS(=O)(=O)c1cc(NC(=O)c2cc3ccccc3oc2=O)ccc1C` as the compound, how does the activity change, negative = inhibition read?
A: inconclusive: -2.35%

Q: For `O=C(Cc1csc(NC(=O)c2ccc(F)cc2)n1)NO`, which Potency is on record?
A: inconclusive: 20 µM [falling, single point]

Q: For `COc1cccc(C2=CC(c3ccccc3F)n3c(nc4ccccc43)N2)c1` (centres undefined), which Potency is on record?
A: inconclusive: 31.6 µM [rising, single point]

Q: For `O=C(c1cc(COc2ccc(F)cc2Cl)on1)N1CCc2ccccc2C1`, which activity change, negative = inhibition is on record?
A: inconclusive: 22.8%

Q: With `COc1ccc(-c2nnc(-c3ccc(F)cc3)o2)cc1` as the compound, how does the activity change, negative = inhibition read?
A: inconclusive: 3.1%

Q: For `Cc1onc(C(=O)/C=C/N(C)C)c1C(=O)Nc1nccs1`, which activity change, negative = inhibition is on record?
A: inconclusive: 11.8%

Q: With `COc1ccc2oc(C(=O)Nc3nc4ccccc4[nH]3)c(C)c2c1` as the compound, how does the Potency read?
A: inconclusive: 11.2 µM [falling, partial curve]

Q: For `CCOC(=O)c1cnc(SC)nc1Nc1cccc(F)c1`, which “activity change, negative = inhibition” value is on record?
A: inactive: -1.16%

Q: Which activity change, negative = inhibition does the source give for `CCc1ccc(-c2cn(-c3nc(C)cc(C)n3)c(=N)o2)cc1` here?
A: inconclusive: 16.4%

Q: Which Potency does the source give for `Clc1ccc(CSc2nnc(-c3ccccn3)n2Cc2ccco2)c(Cl)c1` here?
A: inconclusive: 15.8 µM [falling, partial curve]

Q: Which “activity change, negative = inhibition” value does the source give for `S=C1NCN(Cc2cccnc2)CN1Cc1ccccc1` here?
A: inactive: 1.99%

Q: For `Cc1cc(N2CCN(c3ccc(C(F)(F)F)cc3[N+](=O)[O-])CC2)c2ccccc2n1`, which Potency is on record?
A: inconclusive: 35.5 µM [falling, single point]

Q: Which “activity change, negative = inhibition” value does the source give for `CCN1CCN(Cc2nc3c(c(=O)[nH]c(=O)n3C)n2Cc2ccccc2Cl)CC1` here?
A: inactive: -2.77%

Q: For `CCOC(=O)C1=C(COC(=O)c2cccc(N(C)C)c2)NC(=O)NC1C` (centres undefined), which “activity change, negative = inhibition” value is on record?
A: inactive: 5.18%

Q: With `Cc1ccc(S(=O)(=O)NCCc2csc3nc(-c4ccccc4C)nn23)cc1` as the compound, how does the activity change, negative = inhibition read?
A: inconclusive: 19.2%

Q: With `COc1ccc(Nc2oc(-c3ccccc3)nc2C#N)cc1` as the compound, how does the activity change, negative = inhibition read?
A: inconclusive: 10.2%

Q: For `Cn1cc([N+](=O)[O-])c(C(=O)Nc2ccn(Cc3c(F)c(F)cc(F)c3F)n2)n1`, which Potency is on record?
A: inconclusive: 16.4 µM [falling, single point]

Q: For `O=S(=O)(c1cccs1)N1CCN(CC(O)COc2cc(Cl)ccc2Cl)CC1` (centres undefined), which activity change, negative = inhibition is on record?
A: inconclusive: -14.2%

Q: Which “activity change, negative = inhibition” value does the source give for `CCN(CC)S(=O)(=O)c1ccc(N2CCOCC2)c(NC(=O)c2sccc2C)c1` here?
A: inactive: -7.5%

Q: Which activity change, negative = inhibition does the source give for `COc1ccc(OC)c(NC(=S)NCc2cccs2)c1` here?
A: inconclusive: 7.58%

Q: For `CCOc1ccc(CSC2=NCCN2)cc1Cl`, which Potency is on record?
A: inconclusive: 31.6 µM [falling, single point]

Q: For `Cc1cccn2c(=O)c3cc(S(=O)(=O)c4ccccc4)c(=N)n(Cc4ccco4)c3nc12`, which activity change, negative = inhibition is on record?
A: inconclusive: -26.5%

Q: Which activity change, negative = inhibition does the source give for `CSc1nc(O)c(C(c2cccc([N+](=O)[O-])c2)c2c(O)nc(SC)[nH]c2=O)c(=O)[nH]1` here?
A: inconclusive: -2.78%

Q: With `CCCC(=O)Nc1ccc(C(=O)/C=C/c2ccc(SC)cc2)cc1` as the compound, how does the Potency read?
A: inconclusive: 12.6 µM [falling, single point]

Q: With `CCCc1cc(=O)[nH]c(SCC(=O)NC2(C#N)CCCCC2)n1` as the compound, how does the “activity change, negative = inhibition” value read?
A: inactive: 0.0246%
